Earlier results as cited in patent publication EP1017675B1, “HIGHLY LIPOPHILIC CAMPTOTHECIN DERIVATIVES” (BIONUMERIK PHARMACEUTICALS, INC., priority 1997, dated 1998).

Details: lactone form

In the case of CC[C@@]1(O)C(=O)OCc2c1cc1n(c2=O)Cc2cc3ccccc3nc2-1 [CPT lactone, Camptothecin], the water solubility is listed as “about 1 µg/mL”.
